Values from PubChem BioAssay AID588781 (Weizmann Institute, 2011)
Shown is an unselected part of 85 reagents tested. 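Knockdowns of interest may either weaken or strengthen the stiffness dependence of elongation, so both low and high differences matter.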 Further read-outs or replicates are left out here. No sequences are given here. Not stated in the record: the amount of reagent, the time to read-out.

Aim: 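Kinase knockdowns that alter how fibroblast elongation varies with matrix stiffness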
Cell system: human foreskin fibroblasts (HFF)
Reagents: siRNA against human genes
Treatment: cells plated on fibronectin-coated silicone of high versus low stiffness (range about 2 MPa to 5 kPa)
Measurement: 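Actin-stained fibroblasts on stiff (about 2 MPa) or soft (about 5 kPa) fibronectin-coated silicone were imaged; shape, stress fibres and edges scored, differences given as (stiff − soft)/stiff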
Direction: stiff-soft elongation difference: higher = elongation depends more strongly on substrate stiffness

With TYK2, what was measured?
stiff-soft elongation difference: 0.29

With PTK2B, how do the results read?
stiff-soft elongation difference: 0.42

With EPHA4, what was measured?
stiff-soft elongation difference: 0.25

Which result is listed for RET?
stiff-soft elongation difference: 0.29

Which result is listed for NTRK2?
stiff-soft elongation difference: 0.39

Which result is listed for NTRK3?
stiff-soft elongation difference: 0.39

What did the screen give for FLT4?
stiff-soft elongation difference: 0.05

How did the screen score FGFR3?
stiff-soft elongation difference: 0.19

What did the screen give for ERBB2?
stiff-soft elongation difference: 0.16

Which result is listed for FRK?
stiff-soft elongation difference: 0.16

With MST1R, what does the deposit list?
stiff-soft elongation difference: 0.35

For FGFR1, what was measured?
stiff-soft elongation difference: 0.19

With SYK, what was measured?
stiff-soft elongation difference: 0.35

With FGR, how do the results read?
stiff-soft elongation difference: 0.32

With SRC, what does the deposit list?
stiff-soft elongation difference: 0.22

With TYRO3, what does the deposit list?
stiff-soft elongation difference: 0

What is on record for ERBB3?
stiff-soft elongation difference: 0.12

With DDR1, how do the results read?
stiff-soft elongation difference: 0.16

With STYK1, what was measured?
stiff-soft elongation difference: 0.29

What did the screen give for JAK2?
stiff-soft elongation difference: 0.2

What is on record for INSR?
stiff-soft elongation difference: 0.33

Which result is listed for KDR?
stiff-soft elongation difference: 0.05

Which result is listed for EPHA8?
stiff-soft elongation difference: 0.27

What is on record for EGFR?
stiff-soft elongation difference: 0.15

Which result is listed for EPHB1?
stiff-soft elongation difference: 0.25

With JAK3, what does the deposit list?
stiff-soft elongation difference: 0.38

Which result is listed for TXK?
stiff-soft elongation difference: 0.22

For FGFR4, how do the results read?
stiff-soft elongation difference: 0.07

Quoted from above, 2 entries:
FLT4 — stiff-soft elongation difference: 0.05
FGFR3 — stiff-soft elongation difference: 0.19
